Paper PMC6685158
These are yes or no findings as the source states them, for the method shown. A result given as binding can be weak or reduced; the word gives no strength.

Protein sequences, listed by entry. Tags and fused reporters are not part of them. Lines headed by an entry give the natural chain unless they say otherwise; changes in a name come on top.
UniProt P26718: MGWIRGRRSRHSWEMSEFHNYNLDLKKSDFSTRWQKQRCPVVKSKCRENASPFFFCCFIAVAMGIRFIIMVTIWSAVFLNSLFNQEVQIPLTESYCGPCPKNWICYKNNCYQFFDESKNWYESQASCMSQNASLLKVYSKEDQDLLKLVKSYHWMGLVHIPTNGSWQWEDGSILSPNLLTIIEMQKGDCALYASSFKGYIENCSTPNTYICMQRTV
UniProt Q29983: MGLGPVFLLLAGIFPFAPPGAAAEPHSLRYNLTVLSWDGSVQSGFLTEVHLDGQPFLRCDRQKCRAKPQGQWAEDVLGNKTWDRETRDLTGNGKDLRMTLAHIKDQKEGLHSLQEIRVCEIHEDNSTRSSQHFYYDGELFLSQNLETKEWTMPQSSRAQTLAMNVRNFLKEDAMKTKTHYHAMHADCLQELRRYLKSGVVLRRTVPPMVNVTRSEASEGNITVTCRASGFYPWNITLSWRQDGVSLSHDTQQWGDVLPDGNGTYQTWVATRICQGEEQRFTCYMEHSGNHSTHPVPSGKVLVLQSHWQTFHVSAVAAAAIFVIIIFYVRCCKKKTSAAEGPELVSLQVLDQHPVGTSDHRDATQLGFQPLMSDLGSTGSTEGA

Biological target: NKG2D receptor on primary human NK cells (human (endogenous in primary NK cells)) (UniProt P26718)
Assay: flow cytometry on cells; primary human NK cells pre-incubated with or without 5 uM MICA-ECD (4 °C, 4 h), then stained with anti-NKG2D PE (5C6 or 1D11) or anti-NKG2D mIgG1 (26F3) detected by anti-mouse IgG Fc PE; only the binder purified

With “MICA*002 extracellular domain (MICA-ECD) (from UniProt Q29983) (domain or fragment)” the binding was “binds”.
